# Measured values: PubChem BioAssay AID652054 (National Center for Advancing Translational Sciences (NCATS), 2013)
# Protein sequences, listed by entry. Tags and fused reporters are not part of them.
# UniProt P35462, whole entry, looked up: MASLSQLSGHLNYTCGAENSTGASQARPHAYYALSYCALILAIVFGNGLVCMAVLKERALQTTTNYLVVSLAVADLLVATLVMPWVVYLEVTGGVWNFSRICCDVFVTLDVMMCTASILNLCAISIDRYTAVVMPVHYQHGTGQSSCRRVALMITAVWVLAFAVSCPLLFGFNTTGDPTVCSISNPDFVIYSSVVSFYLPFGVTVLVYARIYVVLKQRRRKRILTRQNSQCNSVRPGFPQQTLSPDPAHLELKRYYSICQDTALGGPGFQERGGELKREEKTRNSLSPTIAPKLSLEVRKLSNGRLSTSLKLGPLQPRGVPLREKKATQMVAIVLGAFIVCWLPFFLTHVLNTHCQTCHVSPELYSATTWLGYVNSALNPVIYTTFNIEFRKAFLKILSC
# Hit rate of the full screen: of about 360,000 compounds, about 9,100 (2.5%) were called active. Inconclusive means that the source gave no clear call. Such entries were picked first, then a sample of the others. No stated cut-off is given here; in the data, active means max response below about -50%; inconclusive means no clear call, values can overlap the other calls; inactive means above that.
# Molecular target: D(3) dopamine receptor (Homo sapiens) (UniProt P35462)
# Assay: qHTS of D3 Dopamine Receptor Antagonist: qHTS
# Details: D3R cells, DiscoveRx beta-arrestin luminescence, antagonist mode; hits give low values
# In short: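 Cells expressing the human receptor were seeded at 1500 cells/well, incubated overnight at 37 degrees C in 5% CO2, then exposed to library compounds with dopamine controls for 90 minutes at 37 degrees C before luminescent detection.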
# On the % scale 0 is the no-effect control and ±100 the full control effect.
row,Compound,"max response, negative = inhibition"
1,O=S(=O)(Nc1ccc(OC(F)F)cc1)c1ccc(-c2ccon2)s1,inconclusive: -46%
2,COC(=O)c1sc(NC(=S)NC(=O)c2ccccc2Cl)nc1C,inconclusive: -48.6%
3,O=C(/C=C/c1cccs1)N1CCN(c2ccc(O)cc2)CC1,inactive: -14.3%
4,Oc1ccccc1N1CCN(CC(O)COC2CCCc3ccccc32)CC1 (stereo not given),inconclusive: -49%
5,CC1CCN(C(=S)Nc2ccc(F)cc2)CC1,inconclusive: -36.6%
6,COc1ccc(CO[C@@H]2O[C@H](CO)[C@@H](O)[C@H](O)[C@H]2NC(C)=O)cc1OC,active: -51.6%
7,O=C(CN1C(=O)/C(=C/c2ccccc2F)Sc2ccccc21)NCCCN1CCOCC1,inconclusive: -32.2%
8,CCOc1ccc(NC(=O)CSc2nnnn2C2CCCC2)cc1,inconclusive: -47.6%
9,CCOC(=O)c1cn(CC(=O)Nc2ccc(C)cc2)nn1,inactive: -11.5%
10,COc1ccc(C2CCN(Cc3cccnc3)CC2O)cc1 (stereo not given),inactive: -24.6%
11,CCCCS/C(N)=N/N=C/c1cc(C)ccc1O,active: -54.8%
12,COC(=O)c1ccc(CCc2cc(O)ccc2O)cc1,inconclusive: -32.3%
13,Cc1ccc(OCCOCCNC(C)(C)C)c([N+](=O)[O-])c1,inconclusive: -44.4%
14,Cc1nn(-c2ccccc2)c(C)c1C(=O)Nc1nnc(-c2ccco2)o1,inconclusive: -32.8%
15,COc1cc2c(cc1OC)CN(CC(=O)Nc1ccc(Cl)cc1Cl)CC2,inconclusive: -44.8%
16,N#Cc1ccc(-c2ccco2)nc1SCc1ccccc1,inactive: 2.75%
17,CC(C)c1ccc(CC(=O)N2CCC2(C)C(=O)Nc2cccc(C#N)c2)cc1 (stereo not given),inactive: 17.3%
18,O=C(Nc1ccccc1)Nc1ccc(Cl)c(S(=O)(=O)N2CCOCC2)c1,active: -50.9%
19,Cc1cc(C)n(-c2ccc(Cl)c(C(=O)Nc3ccc(OC(F)(F)F)cc3)n2)n1,inactive: -19.4%
20,CC(=O)Nc1ccc(S(=O)(=O)c2c(N)n(CCN3CCOCC3)c3nc4ccccc4nc23)cc1,inconclusive: -44.5%
21,O=C(CCc1nc2ccccc2c(=O)[nH]1)NC1CCN(Cc2ccccc2)CC1,inconclusive: -35.5%
22,CCCCCCOC(=O)c1ccccc1NC(=O)/C=C/C(=O)O,inconclusive: -46.5%
23,CCN(CC)CCN(C(=O)c1ccc(S(=O)(=O)N2CCCC2)cc1)c1nc2cc(C)cc(C)c2s1,inconclusive: -31%
24,CC(=O)Nc1nnc(S(=O)(=O)N2CCN(c3ccc(Cl)cc3[N+](=O)[O-])CC2)s1,inconclusive: -40.3%
25,O=S(=O)(c1ccccc1)N1CCN(Cc2ccccc2C(F)(F)F)CC1,inconclusive: -48%
26,CCOC(=O)C1=C[C@@H](CC)N(S(=O)(=O)c2ccc(C)cc2)[C@H]1c1ccccc1,inconclusive: -37.1%
27,O=C(Cc1cccc(NC(=O)C2CCN(C(=O)C3CC3)CC2)c1)Nc1cccc(C(=O)N2CCCCC2)c1,inactive: -18.4%
28,CC1(C(=O)NS(=O)(=O)Cc2ccccc2)CCN1C(=O)Cc1cc(F)ccc1F (stereo not given),inactive: 0.998%

row,Compound,"max response, negative = inhibition"
1,N#C/C(=C\c1c[nH]c2ccccc12)C(=O)Nc1ncc(Cc2ccc(Cl)cc2Cl)s1,inconclusive: -39.4%
2,Cc1ccc(SCc2cc(=O)[nH]c(Nc3nc(C)c4ccc(C)cc4n3)n2)cc1,inconclusive: -31.5%
3,CCn1c(N2CCN(CC(=O)c3c(C)n(C)c4ccccc34)CC2)nc2c1c(=O)[nH]c(=O)n2C,inactive: 0%
4,Cc1ccc(-n2nnc(-c3nccn3C)n2)cc1,inconclusive: -32.1%
5,CCC(Sc1nncn1C)C(=O)Nc1nnc(-c2ccc(Cl)cc2)s1 (stereo not given),inconclusive: -33.7%
6,O=c1oc2cc(Oc3c([N+](=O)[O-])cc(C(F)(F)F)cc3[N+](=O)[O-])ccc2c2c1CCCC2,active: -89.9%
7,O=C(NC1CC(=O)N(c2ccccc2)C1)C(=O)c1c[nH]c2ccccc12 (stereo not given),inconclusive: -34.3%
8,Oc1ccc(C[C@H]2CN([C@@H](Cc3ccccc3)CN3CCCC3CN3C(=S)NC[C@@H]3Cc3ccccc3)C(=S)N2CC2CCCCC2)cc1 (stereo not given in full),inconclusive: -48.9%
9,COc1ccc(NS(=O)(=O)c2ccc(NC(=S)NC(=O)/C=C/c3ccc(C)cc3)cc2)nn1,inconclusive: -38.2%
10,CC1CC(C)(C)N(C(=O)CN2CCN(C)CC2)c2ccccc21 (stereo not given),inconclusive: -41.7%
11,Cc1ccc(C)c(OCCC(=O)OCC(=O)Nc2cccc(S(=O)(=O)N3CCCC3)c2)c1,inactive: 0%
12,Cc1cc(C)c(OCC(=O)N/N=C/c2ccc3c(c2)OCO3)c(C)c1,inactive: 21.9%
13,CC1(C)CC=C(NNC(=O)c2cccnc2)C(=O)C1,inconclusive: -33.2%
14,Cc1ccccc1-c1nnc(CN2CCC(C)CC2)o1,inconclusive: -34%
15,CC(=O)Nc1cccc2c1C(=O)N(c1cccc(OC(C)=O)c1)C2=O,inactive: -0.791%
16,Cc1cc2c(cc1C)N(C(=O)CCl)CCN2C(=O)CCl,inconclusive: -32%
17,Cc1ccc(-c2nnc(N3CCCCCC3)c3ccccc23)cc1,inconclusive: -39.5%
18,COC(=O)c1cc(-c2c(C)oc3cc(O)ccc3c2=O)c(C)o1,inactive: -15%
19,COc1ccc(S(=O)(=O)N/N=C(/C)c2ccc(Cl)cc2)cc1,inconclusive: -30.5%
20,Cc1ccc(OCCN2CCN(c3nc(NCc4ccco4)c4ccccc4n3)CC2)cc1,active: -78.4%
21,CCc1ccc(CNC(=O)c2ccc(NC(=O)C3=CSCCO3)cc2)cc1,inactive: -3.79%
22,CC(C)Nc1nc(Oc2ccc(Cl)cc2Cl)cc(C(F)(F)F)n1,inconclusive: -34.8%
23,O=C(NCc1ccncc1)/C(=N/O)c1ccccc1,active: -53.3%
24,CCOc1cccc(C(=O)Nc2ccccc2C(=O)N2CCOCC2)c1,inconclusive: -41.1%
25,CC(=O)Oc1cccc2c1C(=O)C1CC=CC(OC(C)=O)C1C2=O (stereo not given),inconclusive: -41.3%
26,Cn1ncc2c(Nc3ccc([N+](=O)[O-])cc3)nc(Cl)nc21,inactive: -10.7%
27,COc1ccccc1Cc1c(C(C)(C)C)nc2cc(C)c(Br)c(C)n12,inconclusive: -45%

# Not a retest: an excerpt of the list.
row,Compound,"max response, negative = inhibition"
11,Cc1ccc(C)c(OCCC(=O)OCC(=O)Nc2cccc(S(=O)(=O)N3CCCC3)c2)c1,inactive: 0%
12,Cc1cc(C)c(OCC(=O)N/N=C/c2ccc3c(c2)OCO3)c(C)c1,inactive: 21.9%
13,CC1(C)CC=C(NNC(=O)c2cccnc2)C(=O)C1,inconclusive: -33.2%
14,Cc1ccccc1-c1nnc(CN2CCC(C)CC2)o1,inconclusive: -34%
15,CC(=O)Nc1cccc2c1C(=O)N(c1cccc(OC(C)=O)c1)C2=O,inactive: -0.791%
16,Cc1cc2c(cc1C)N(C(=O)CCl)CCN2C(=O)CCl,inconclusive: -32%
17,Cc1ccc(-c2nnc(N3CCCCCC3)c3ccccc23)cc1,inconclusive: -39.5%
18,COC(=O)c1cc(-c2c(C)oc3cc(O)ccc3c2=O)c(C)o1,inactive: -15%
19,COc1ccc(S(=O)(=O)N/N=C(/C)c2ccc(Cl)cc2)cc1,inconclusive: -30.5%
20,Cc1ccc(OCCN2CCN(c3nc(NCc4ccco4)c4ccccc4n3)CC2)cc1,active: -78.4%
21,CCc1ccc(CNC(=O)c2ccc(NC(=O)C3=CSCCO3)cc2)cc1,inactive: -3.79%
22,CC(C)Nc1nc(Oc2ccc(Cl)cc2Cl)cc(C(F)(F)F)n1,inconclusive: -34.8%
23,O=C(NCc1ccncc1)/C(=N/O)c1ccccc1,active: -53.3%
24,CCOc1cccc(C(=O)Nc2ccccc2C(=O)N2CCOCC2)c1,inconclusive: -41.1%
25,CC(=O)Oc1cccc2c1C(=O)C1CC=CC(OC(C)=O)C1C2=O (stereo not given),inconclusive: -41.3%
